Measurements published in patent US20220364110A1.
Results are given in words; binding and its absence hold for the method and conditions named. Some results given as binding are weak or reduced against the parent protein; the word gives no strength.

The chains behind the UniProt entries cited, without tags or fusion partners. Residues count along the entry.
UniProt P06127, residues 25-372: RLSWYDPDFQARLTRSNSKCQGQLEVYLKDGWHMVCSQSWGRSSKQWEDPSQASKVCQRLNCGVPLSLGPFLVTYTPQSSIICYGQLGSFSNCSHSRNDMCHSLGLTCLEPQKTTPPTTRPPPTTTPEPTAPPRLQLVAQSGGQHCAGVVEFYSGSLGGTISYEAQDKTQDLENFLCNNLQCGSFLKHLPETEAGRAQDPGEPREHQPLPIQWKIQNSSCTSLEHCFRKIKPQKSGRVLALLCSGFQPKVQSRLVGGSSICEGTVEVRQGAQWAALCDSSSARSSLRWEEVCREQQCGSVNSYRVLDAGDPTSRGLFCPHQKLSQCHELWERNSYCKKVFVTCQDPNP

Experiments:
[1] = biological target: Alexa647-conjugated CD5 protein (UniProt P06127); test: flow cytometry, Alexa647-conjugated CD5 protein on transfected HEK293 cells
[2] = biological target: Alexa647-conjugated CD5 protein (UniProt P06127); test: flow cytometry, labelled CD5 on transfected HEK293T cells

B1: CD5-FcR-PI3K chimeric receptor (ATAK receptor; CD5 binder chimeric antigen receptor) expressed from the LINE-1 plasmid CD5-intron-FCR-PI3K cargo (receptor)
chain: EIQLVQSGGGLVKPGGSVRISCAASGYTFTNYGMNWVRQAPGKGLEWMGWINTHTGEPTYADSFKGRFTFSLDDSKNTAYLQINSLRAEDTAVYFCTRRGYDWYFDVWGQGTTVTVSSGGGGSGGGGSGGGGSDIQMTQSPSSLSASVGDRVTITCRASQDINSYLSWFQQKPGKAPKTLIYRANRLESGVPSRFSGSGSGTDYTLTISSLQYEDFGIYYCQQYDESPWTFGGGTKLEIKSGGGGSGALSNSIMYFSHFVPVFLPAKPTTTPAPRPPTPAPTIASQPLSLRPEACRPAAGGAVHTRGLDIYIWAPLAGTCGVLLLSLVITLYCRRLKIQVRKAAITSYEKSDGVYTGLSTRNQETYETLKHEKPPQGSGSYEDMRGILYAAPQLRSIRGQPGPNHEEDADSYENM
binding [1]: binds
binding [2]: binds
